These are yes or no findings as the source states them, for the method shown. Binding seen in cells or lysates may run through a third protein. Binding calls can cover weak binding; strength is not graded here.

Sequences of proteins named here, by UniProt entry; tags and fusion partners are left off. A change or cut given only in a name is not applied to a line headed by its entry.
UniProt Q9Z148, whole entry, stated change not applied: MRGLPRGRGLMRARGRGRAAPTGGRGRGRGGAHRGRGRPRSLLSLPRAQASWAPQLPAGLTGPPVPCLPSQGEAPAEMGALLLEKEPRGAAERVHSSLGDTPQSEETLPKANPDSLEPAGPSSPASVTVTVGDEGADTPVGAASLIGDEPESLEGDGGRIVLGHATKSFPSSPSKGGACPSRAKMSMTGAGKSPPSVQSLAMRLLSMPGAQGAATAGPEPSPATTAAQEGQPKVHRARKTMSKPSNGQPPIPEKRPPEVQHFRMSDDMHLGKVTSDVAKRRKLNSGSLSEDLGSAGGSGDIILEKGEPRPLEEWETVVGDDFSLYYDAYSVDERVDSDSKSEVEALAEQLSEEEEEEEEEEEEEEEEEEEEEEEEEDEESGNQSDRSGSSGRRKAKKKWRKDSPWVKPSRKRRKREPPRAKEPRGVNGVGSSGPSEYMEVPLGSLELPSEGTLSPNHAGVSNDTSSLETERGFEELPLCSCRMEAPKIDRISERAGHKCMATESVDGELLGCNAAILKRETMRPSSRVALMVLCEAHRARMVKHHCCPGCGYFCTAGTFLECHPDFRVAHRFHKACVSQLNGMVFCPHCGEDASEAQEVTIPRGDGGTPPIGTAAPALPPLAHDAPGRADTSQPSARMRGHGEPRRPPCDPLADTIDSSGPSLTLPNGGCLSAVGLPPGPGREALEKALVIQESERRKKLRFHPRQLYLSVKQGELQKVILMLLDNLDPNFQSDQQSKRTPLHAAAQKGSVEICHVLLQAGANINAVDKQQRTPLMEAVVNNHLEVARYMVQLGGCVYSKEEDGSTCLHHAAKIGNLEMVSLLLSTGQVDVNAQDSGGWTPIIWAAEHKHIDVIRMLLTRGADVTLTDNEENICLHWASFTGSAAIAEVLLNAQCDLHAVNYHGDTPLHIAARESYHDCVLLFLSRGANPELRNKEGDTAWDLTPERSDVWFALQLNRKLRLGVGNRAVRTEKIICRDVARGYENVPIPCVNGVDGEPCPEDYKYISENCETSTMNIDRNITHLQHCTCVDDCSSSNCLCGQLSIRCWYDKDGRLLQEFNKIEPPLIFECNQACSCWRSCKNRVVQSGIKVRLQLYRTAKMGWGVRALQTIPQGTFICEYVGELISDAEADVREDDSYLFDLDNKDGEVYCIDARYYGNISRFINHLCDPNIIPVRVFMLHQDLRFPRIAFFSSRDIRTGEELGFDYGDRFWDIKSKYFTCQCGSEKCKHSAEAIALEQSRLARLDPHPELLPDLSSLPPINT

For the assay, the target named is HA-tagged G9a (UniProt Q9Z148). Briefly: co-IP.

Turning to mCherry-NPM1ΔDBD (from UniProt Q61937), the binding result is listed as “binds”.

For the origin of these results see paper doi:10.1101/2024.07.03.601885.
